Data as given in PubChem BioAssay AID1224826 (NIAID, 2016)
In all, the deposit lists about 17,000 reagents; shown is a random part of them. Of all reagents, about 1,110 (6.6%) are marked active. 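Active means lowered or raised reporter signal; replicate intensities are raw and not normalised per plate.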 The numbers tell different reagents against one gene apart.

Test: 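Genes that change LPS-induced Tnf promoter activity in mouse macrophages when knocked down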 (primary screen)
Cell system: RAW264.7 G9 macrophages from mouse bearing reporters for p65 (GFP) and the Tnf promoter (mCherry)
Knock-down reagent: siRNA pool against mouse genes, 100 nM
Duration: 16 h of LPS stimulation, after 2 days of siRNA transfection
Challenge: bacterial lipopolysaccharide (Salmonella minnesota R595), 10 ng/ml
Detection: 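Imaged Tnf reporter mCherry in nuclei, minus background, normalised per plate to the median and expressed as robust z-scores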
Scale: Tnf reporter robust z-score: higher = stronger Tnf promoter reporter signal after LPS; Tnf reporter intensity: higher = stronger Tnf promoter reporter signal
Hit rule: 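Called active when robust z-score is at most -1.3, matching the median of the Tlr4 knock-down control, or over 3; control wells and wells with under 50 cells never active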
Calls: active = Tnf reporter clearly lowered or raised; inactive = no clear change in Tnf reporter

target	reagent	Tnf reporter robust z-score	fewer than 50 cells in well	Tnf reporter intensity, replicate 1	Tnf reporter intensity, replicate 2	Call
Csnk1g3 (casein kinase 1, gamma 3)	1	-0.36	enough cells in well	175	82.8	inactive
Csnk1g3 (casein kinase 1, gamma 3)	2	-0.34	enough cells in well	108	131	inactive
Med27 (mediator complex subunit 27)	1	-0.75	enough cells in well	178	150	inactive
Stfa2l1 (stefin A2 like 1)	1	-1.28	enough cells in well	128	66.4	inactive
Ca15 (carbonic anhydrase 15)	1	-1.19	enough cells in well	99.6	104	inactive
Ankle1 (ankyrin repeat and LEM domain containing 1)	1		fewer than 50 cells per well; well left out of calls	116	55.7	inactive
Or52a24 (olfactory receptor family 52 subfamily A member 24)	1	-1.1	enough cells in well	157	59.6	inactive
Hes7 (hes family bHLH transcription factor 7)	1	-1.11	enough cells in well	170	99.3	inactive
Or8b4 (olfactory receptor family 8 subfamily B member 4)	1	0.02	enough cells in well	95.9	123	inactive
Cdc27 (cell division cycle 27)	1	-0.25	enough cells in well	154	176	inactive
Smcp (sperm mitochondria-associated cysteine-rich protein)	1	-0.93	enough cells in well	111	116	inactive
Inf2 (inverted formin, FH2 and WH2 domain containing)	1	1.12	enough cells in well	241	98.3	inactive
Shox2 (SHOX homeobox 2)	1	-0.36	enough cells in well	251	185	inactive
Cchcr1 (coiled-coil alpha-helical rod protein 1)	1	-0.04	enough cells in well	254	154	inactive
Timm13 (translocase of inner mitochondrial membrane 13)	1	3.25	enough cells in well	226	213	active
Or8d1 (olfactory receptor family 8 subfamily D member 1)	1	-0.33	enough cells in well	155	111	inactive
Slfn9 (schlafen 9)	1		fewer than 50 cells per well; well left out of calls	91.2	50.2	inactive
Pip4k2b (phosphatidylinositol-5-phosphate 4-kinase, type II, beta)	1	-0.42	enough cells in well	162	144	inactive
Sirpb1a (signal-regulatory protein beta 1A)	1	-0.16	enough cells in well	149	150	inactive
Ramp1 (receptor (calcitonin) activity modifying protein 1)	1	-0.5	enough cells in well	250	66.5	inactive
Chn2 (chimerin 2)	1	0.05	enough cells in well	155	210	inactive
Krt34 (keratin 34)	1	-1.21	enough cells in well	148	53.8	inactive
Or10g9b (olfactory receptor family 10 subfamily G member 9B)	1		fewer than 50 cells per well; well left out of calls	129	137	inactive
Myb (Myb proto-oncogene, transcription factor)	1	0.52	enough cells in well	328	227	inactive

In a second layout: 2 of the entries above.
| target | reagent | Tnf reporter robust z-score | fewer than 50 cells in well | Tnf reporter intensity, replicate 1 | Tnf reporter intensity, replicate 2 | Call |
| --- | --- | --- | --- | --- | --- | --- |
| Inf2 (inverted formin, FH2 and WH2 domain containing) | 1 | 1.12 | enough cells in well | 241 | 98.3 | inactive |
| Shox2 (SHOX homeobox 2) | 1 | -0.36 | enough cells in well | 251 | 185 | inactive |
